Measured values from article PMC11904033, “Lanatoside C activates the E3 ligase STUB1 to inhibit FOXP3 transcriptional activity and promote antitumor immunity” (EMBO Molecular Medicine, 2025).

The chains behind the UniProt entries cited, without tags or fusion partners. Residues count along the entry.
UniProt Q9BZS1, residues 1-417: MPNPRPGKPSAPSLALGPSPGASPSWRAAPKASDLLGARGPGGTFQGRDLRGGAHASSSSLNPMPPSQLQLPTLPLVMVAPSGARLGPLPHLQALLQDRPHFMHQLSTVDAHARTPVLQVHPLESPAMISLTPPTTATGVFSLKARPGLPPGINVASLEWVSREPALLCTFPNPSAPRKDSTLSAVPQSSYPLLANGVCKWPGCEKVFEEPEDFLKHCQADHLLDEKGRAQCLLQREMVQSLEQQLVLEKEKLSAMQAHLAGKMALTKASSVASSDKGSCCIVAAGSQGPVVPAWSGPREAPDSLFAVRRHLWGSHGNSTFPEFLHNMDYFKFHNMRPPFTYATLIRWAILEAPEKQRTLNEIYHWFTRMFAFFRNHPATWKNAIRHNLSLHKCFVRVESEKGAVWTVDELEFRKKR
UniProt Q01196: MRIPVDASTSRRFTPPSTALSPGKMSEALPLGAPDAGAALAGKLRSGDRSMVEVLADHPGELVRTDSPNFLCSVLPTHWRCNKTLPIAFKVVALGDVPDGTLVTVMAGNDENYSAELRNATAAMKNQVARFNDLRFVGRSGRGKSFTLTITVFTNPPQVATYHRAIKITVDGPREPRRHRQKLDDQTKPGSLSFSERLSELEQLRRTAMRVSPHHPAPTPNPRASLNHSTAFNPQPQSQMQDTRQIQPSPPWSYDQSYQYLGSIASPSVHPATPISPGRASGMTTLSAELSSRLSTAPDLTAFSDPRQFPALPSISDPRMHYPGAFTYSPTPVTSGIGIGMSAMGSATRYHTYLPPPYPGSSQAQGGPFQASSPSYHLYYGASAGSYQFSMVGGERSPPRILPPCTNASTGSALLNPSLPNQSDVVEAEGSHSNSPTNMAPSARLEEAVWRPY
UniProt Q9UNE7: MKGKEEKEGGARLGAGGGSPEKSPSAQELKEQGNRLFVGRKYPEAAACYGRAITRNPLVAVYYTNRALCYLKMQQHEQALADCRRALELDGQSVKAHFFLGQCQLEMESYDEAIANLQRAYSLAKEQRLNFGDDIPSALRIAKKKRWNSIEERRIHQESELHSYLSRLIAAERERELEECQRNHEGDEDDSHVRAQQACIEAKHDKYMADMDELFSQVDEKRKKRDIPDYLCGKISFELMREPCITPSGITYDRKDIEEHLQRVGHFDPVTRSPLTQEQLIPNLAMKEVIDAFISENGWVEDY

Key:
[1] = target: FOXP3-Flag (UniProt Q9BZS1); test: affinity purification with mass spectrometry; precipitate of FOXP3-Flag, DMSO group and Lac group; cells not named
[2] = target: RUNX1-Clu-Myc (RUNX1 fused to the C-terminal half of firefly luciferase, Myc) (UniProt Q01196); test: affinity purification with mass spectrometry; 293T-RUNX1-Clu-Myc cells pretreated with MG132 (5 uM) for 1 h, then Lac for 6 h; immunoprecipitation with RUNX1 antibody or IgG; three biological replicates

binding [1] | binding [2] | Substance
binds |  | RUNX1 (precipitated by FOXP3-Flag, Dataset EV1) (from UniProt Q01196 1-453)
 | binds | STUB1 (STIP1 homology and U-box-containing protein 1), endogenous (from UniProt Q9UNE7 1-303)

Results are given in words; binding and its absence hold for the method and conditions named. Binding seen in cells or lysates may run through a third protein. A yes stands for co-enrichment or nearness to the bait. Other partners may have been found.
